Test results from article PMC12040169 (PLOS Biology, 2025).
The other results are listed elsewhere or left out.

system: T1, CTL2-GFP (C. trachomatis L2/434/Bu, GFP-expressing); parameters: species or system HeLa; Intracellular C. trachomatis growth in HeLa cells, bulk GFP fluorescence relative to DMSO; details: bulk GFP, single well; 28.5 h, 10 µM; inhibitor
T1 construct: L2/434/Bu, GFP-expressing

SMILES	% of control remaining
CC(C)(C)C1=CC2=NC3(CCC3)C3C[C@](O)(COCc4ccccc4)[C@@H](O)[C@@H]3N2O1 (stereo partly shown) [CBK303259]	129.929%
Cc1cc(C)n(CCCNC(=O)N2CCC(c3nccs3)CC2)n1 [CBK304088]	152.867%
COc1ccc(-c2nc(Nc3cccc(C(F)(F)F)c3)sc2CC(=O)O)cc1OC [CBK131693]	93.2396%
O=c1[nH]c(=O)c2cc(S(=O)(=O)Nc3ccc(Cn4ccnc4)cc3)ccc2[nH]1 [CBK286383]	108.598%
COc1ncc(-c2nccnc2NCc2cccnc2)c(OC)n1 [CBK036817]	139.64%
O=C(CSCc1ccc(Cl)c(Cl)c1)Nc1cccnc1 [CBK268542]	105.326%
Cn1ncc2c(NCCCN3CCCC(CO)C3)nc(C(C)(C)C)nc21 (stereo not shown) [CBK307082]	152.705%
NS(=O)(=O)c1ccc(NC(=O)CCC2COc3ccccc3O2)cc1 (stereo not shown) [CBK267696]	104.961%
CCCN1CCC(CNC(=O)c2cc(C3CC3)nn2C)CC1 [CBK282536]	123.567%
COc1ccc([C@@]23CCC(NC(=S)NCc4ccccc4)C[C@@H]2N(Cc2ccccc2)CC3)cc1 (stereo partly shown) [CBK028140]	173.856%
Cc1cccc(-c2ccc(CC3(C(N)=O)CCN(C(=O)Cc4ccccc4)CC3)cc2)c1 [CBK285780]	118.45%
O=C(c1ccccc1F)N1C2CCC1CC(O)(c1cccnc1F)C2 (stereo not shown) [CBK284420]	111.312%
C=C(C)CNC(=O)c1ccc(C)nc1N1CCOCC1 [CBK076389]	100.117%
COCC(C)NS(=O)(=O)c1cc(Cl)ccc1OC (stereo not shown) [CBK270203]	129.532%
CCN(CC)c1c(C)nc2ccc(C(=O)NCc3ccc(N(C)C)cc3)cn12 [CBK145961]	182.021%
COc1ccc(C(=O)C2CCCCC23NCCN3)cc1 (stereo not shown) [CBK023140]	112.15%
COc1ccc(-c2ccc(SCC(=O)Nc3cc(C)on3)nn2)cc1 [CBK287634]	122.471%
COc1ccnc(N2CCN(C(=O)c3cc(C(C)=O)cn3C)CC2)n1 [CBK306272]	140.605%
CC(C)C[C@H]([C@@H]1C[C@@H](C(C)C)C(=O)O1)N1C(=O)c2ccccc2C1=O [CBK011526]	104.018%
CCOC(=O)CNC1CCCCC1 [CBK023276C]	120.418%
CCc1nc2ccc(C(=O)N(C)CCN(C)C)cn2c1N(CC)Cc1cccc(Br)c1 [CBK146962]	106.715%
Cc1c(C)n(O)[n+]([O-])c1-c1ccccc1 [CBK264510N]	81.5813%
CC(C)(O)C#Cc1ccc(C(=O)N2CCC(C(N)=O)(N3CCCCC3)CC2)cc1 [CBK264065]	124.129%
COC(=O)Cn1c(CN2CCN(c3ccccc3F)CC2)nc2c1c(=O)n(C)c(=O)n2C [CBK269444]	135.308%
O=C(O)C[C@H](CNC(=O)COc1ccc2ccc(=O)oc2c1)c1ccc(Cl)cc1 [CBK286702]	103.116%
Oc1ccc(/C=N/n2c(S)nnc2C(F)(F)F)cc1 [CBK265206]	101.024%
Cc1cccnc1NC(=O)c1ccc(N2CCN(C)CC2)c([N+](=O)[O-])c1 [CBK269366]	149.055%

In another format: 6 of the compounds above.
SMILES | % of control remaining
O=C(CSCc1ccc(Cl)c(Cl)c1)Nc1cccnc1 [CBK268542] | 105.326%
Cn1ncc2c(NCCCN3CCCC(CO)C3)nc(C(C)(C)C)nc21 (stereo not shown) [CBK307082] | 152.705%
NS(=O)(=O)c1ccc(NC(=O)CCC2COc3ccccc3O2)cc1 (stereo not shown) [CBK267696] | 104.961%
CCCN1CCC(CNC(=O)c2cc(C3CC3)nn2C)CC1 [CBK282536] | 123.567%
COc1ccc([C@@]23CCC(NC(=S)NCc4ccccc4)C[C@@H]2N(Cc2ccccc2)CC3)cc1 (stereo partly shown) [CBK028140] | 173.856%
Cc1cccc(-c2ccc(CC3(C(N)=O)CCN(C(=O)Cc4ccccc4)CC3)cc2)c1 [CBK285780] | 118.45%

(next part)

SMILES	% of control remaining
CC(C)C(=O)Nc1c(-c2ccsc2)cnc2ncccc12 [CBK083714]	124.97%
CC1=CCCN(C(=O)C23CCOCC2CN(c2ncc(F)cn2)C3)C1 (stereo not shown) [CBK304263]	103.562%
c1ccc(-c2nc(C3CCNCC3)n3ccncc23)cc1 [CBK035434]	153.713%
Cc1cc(NS(=O)(=O)c2cccc(C(F)(F)F)c2)n(C)n1 [CBK067244]	111.074%
COc1cc(Cl)cc(C2NC(=S)NC(c3ccccc3)=C2C(=O)c2ccccc2)c1OCC(=O)O (stereo not shown) [CBK266332]	112.365%
N#Cc1ccccc1NC(=O)CN1CCCCCC1 [CBK270088]	150.758%
COC(=O)c1ccc(CSc2nnc(-n3sc4ccccc4c3=O)s2)cc1 [CBK116502]	102.277%
Cc1ccc(/C=C(\NC(=O)c2ccccc2)C(=O)N2CCCC2C(=O)O)cc1 (stereo not shown) [CBK265649]	100%
Cc1ccc(C(CC(=O)N2CCN(Cc3ccccc3)CC2)c2ccccc2)c(O)c1C (stereo not shown) [CBK262214]	120.583%
c1ccc(-c2nnc3ccccc3c2NCCCN2CCOCC2)cc1 [CBK066892]	118.195%
CCCC(=O)NC(c1ccc(OC)c(OC)c1)c1c(O)ccc2ccccc12 (stereo not shown) [CBK263269]	98.0687%
Cc1cccc(CN2CCCC[C@H]3CN(C(=O)c4cccs4)C[C@H]32)c1 [CBK285530]	103.861%
CCOc1cc(S(=O)(=O)NCCCN2CCOCC2)ccc1Br [CBK270111]	102.527%
COc1ccc(CN2CCC(O)CC2)c(OC)c1 [CBK261522]	101.173%
O=C(Nc1ccccc1N1CCCNCC1)c1ccc2ccccc2c1 [CBK038927T]	6.569%
Cc1cc2n(n1)[C@@H](C(F)F)C[C@@H](C1CCCN(C(=O)C(C)C)C1)N2 (stereo partly shown) [CBK284722]	91.0863%
Fc1cccc(-c2nc3cnccn3c2NCc2ccco2)c1 [CBK282323]	122.522%
Cc1cc(NC(=O)c2ccc3ccccc3c2)nc2c1c(=O)oc1ccccc12 [CBK291122]	101.797%
O=C1/C(=C/c2ccc(OCc3cccc4ccccc34)cc2)SC(=S)N1Cc1cccnc1 [CBK264669]	96.5733%
O=S(=O)(Nc1ccc2[nH]ccc2c1)c1cccnc1 [CBK156811]	149.778%
CCC(=O)NCCc1c[nH]c2ccc([N+](=O)[O-])cc12 [CBK088059]	104.566%
CC(=O)Oc1ccc(-c2cccc(C(=O)NCCO)c2)cc1 [CBK263829]	86.3545%
CN(C)CCNCc1cccc(OCc2ccccc2)c1 [CBK278216C]	135.875%
COc1ccc(-c2nnc(NC(=O)C3CCCCC3)o2)cc1 [CBK287592]	100.162%
COc1ccc(C2CNC(=O)N2C(=O)OC(C)(C)C)cc1OC1CCCC1 (stereo not shown) [CBK007281]	144.694%
CCn1cc(CN(C)Cc2csc(C)n2)c2cc(C(=O)O)ncc21 [CBK306950]	78.4806%
Cn1c(=O)[nH]c(=O)c2c(-c3ccccc3)ccnc21 [CBK288136]	102.642%

SMILES	% of control remaining
O=C(CCCn1ccnc1)N1CCCC(c2cc3cccnc3[nH]2)C1 (stereo not shown) [CBK284959]	115.415%
CN(C)c1cccc(Nc2ncc(-c3ccc(N4CCOCC4)cc3)n3ccnc23)c1 [CBK091222]	107.882%
Cc1cc(C(F)F)n2nc(C(=O)NCc3ccccc3F)nc2n1 [CBK266228]	149.401%
COc1ccc(CN2C(=S)N(c3ccc(OC)cc3)[C@H]3[C@@H]2[C@H]2OC(=O)[C@@H]3C[C@H]2O)cc1 [CBK288934]	124.733%
Cc1ccc2oc(-c3ccc(C)c(NC(=O)c4cc([N+](=O)[O-])ccc4Cl)c3)nc2c1 [CBK263055]	101.741%
C=CCNC(=O)N[C@H]1CO[C@H]2[C@@H]1OC[C@H]2OC(=O)Nc1ccccc1 [CBK289466]	107.705%
O=C(/C=C/c1ccco1)NC(=S)Nc1ccc(O)c(-c2nc3ccccc3s2)c1 [CBK264344]	116.475%
CSCCN1CCC(Oc2nccnc2OCC2COc3ccccc3O2)CC1 (stereo not shown) [CBK082996T]	118.452%
Cc1ccc(Cn2nc(NC(=O)c3cccn3C)c3ccccc32)cc1 [CBK048214]	112.815%
O=C(N/N=C/c1ccncc1)C1CC1C(=O)N/N=C/c1ccncc1 (stereo not shown) [CBK261115]	94.483%
CC(C)c1nccn1CC(=O)N(C)C(C)c1ccc(F)c(F)c1 (stereo not shown) [CBK306443]	137.199%
COc1ccccc1-c1ccc(NC(=O)C2(c3cccc(F)c3)CCOCC2)cc1 [CBK285747]	132.204%
O=C(CSCCO)Nc1ccc(Oc2ccccc2)cc1 [CBK269167]	124.921%
[N-]=[N+]=Nc1nc2c(N)ncnc2n1C1CC(O)C(CO)O1 (stereo not shown) [CBK201178]	159.896%
O=C1COCC(=O)N1c1ccc(I)cc1 [CBK086499]	161.229%
CN1CCN(c2nc(-c3ccoc3)cn3ccnc23)CC1 [CBK066645]	121.429%
Cc1ccccc1SCC(C)C(=O)O (stereo not shown) [CBK012292]	140.23%
c1ccc2oc(CN3Cc4nc[nH]c4C[C@H]3c3nc(-c4cnccn4)no3)cc2c1 [CBK288954]	109.216%
Cc1cc(OCC(O)CN(Cc2ccccc2)C(C)(C)C)ccc1[N+](=O)[O-] (stereo not shown) [CBK086757]	109.317%
COC(=O)c1c(NC(=O)C(=O)NCc2cccnc2)sc2c1CCCC2 [CBK269170]	143.596%
CC(=O)NC(CC(=O)N1CCCC(n2cccn2)C1)c1cccs1 (stereo not shown) [CBK305405]	86.4523%
COC1C(O)C(CO)OC1n1cnc2c(=O)[nH]cnc21 (stereo not shown) [CBK201328]	138.88%
Cc1noc(N)c1C1OC(=O)c2ccccc21 (stereo not shown) [CBK022932]	91.4687%
CC(CCCC(C)(C)O)Nc1cc(N2CCN(C)CC2)n2nccc2n1 (stereo not shown) [CBK037103]	91.7299%
COc1ccc(C(C)C)cc1-c1cncc(NCCc2ccccn2)n1 [CBK065325]	193.747%
